Data taken from patent US7459543B2, “Modulators of antiestrogen pharmacology” (priority 2000, dated 2008).
No constants are given. Whether binding was seen depends on the method and setting. In cells and extracts the contact can be indirect. Some binding calls cover weakened binding; strength is not graded here. For part of these data: Where a sequence is shown, tags or fusion partners need not be part of it.

By UniProt entry, the sequences of proteins in these tests, tags left out.
UniProt P03372: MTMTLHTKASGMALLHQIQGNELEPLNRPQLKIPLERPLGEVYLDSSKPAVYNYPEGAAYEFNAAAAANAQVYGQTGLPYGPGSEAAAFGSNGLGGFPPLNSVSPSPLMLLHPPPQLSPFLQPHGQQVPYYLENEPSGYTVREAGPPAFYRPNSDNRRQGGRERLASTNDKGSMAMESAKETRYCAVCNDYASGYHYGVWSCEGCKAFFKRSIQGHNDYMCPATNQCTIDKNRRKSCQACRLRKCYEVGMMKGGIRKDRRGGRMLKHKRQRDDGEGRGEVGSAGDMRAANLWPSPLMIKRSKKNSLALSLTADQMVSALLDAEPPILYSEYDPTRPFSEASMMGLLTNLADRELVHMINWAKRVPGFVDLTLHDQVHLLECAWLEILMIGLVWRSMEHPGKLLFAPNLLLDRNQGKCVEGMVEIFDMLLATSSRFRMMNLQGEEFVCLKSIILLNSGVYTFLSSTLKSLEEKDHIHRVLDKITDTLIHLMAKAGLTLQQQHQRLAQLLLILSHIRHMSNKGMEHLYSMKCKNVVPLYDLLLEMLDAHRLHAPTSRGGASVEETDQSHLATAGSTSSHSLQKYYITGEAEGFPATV

B1: glutathione-S-transferase (GST) fusion protein wherein GST was fused to ERCoA3 (protein, not shown: a dimerising Fc or GST)
chain: MCGRPRRVSAGCGFADAHWTGLWTGLGEGQEGGIGPEGQASPTPDCASRWPRSASRWPWSAGLTVRDRPQLGELCMGRG
B2: Estrogen Receptor Coregulator 3 (ERCoA3) protein (protein)
chain: B1 chain

Legend:
[1] = target: Estrogen Receptor alpha (ERalpha), in vitro translated and [35S]-methionine-labeled (UniProt P03372); experiment: GST pull-down of in vitro transcribed and translated [35S]-ERα
[2] = target: Estrogen Receptor alpha (ERalpha), in vitro translated and [35S]-methionine-labeled (UniProt P03372); experiment: GST pull-down of in vitro translated [35S]-ERα with vehicle, E2, TOT or ICI; autoradiograph
[3] = target: Estrogen Receptor alpha (ERalpha), in vitro translated and [35S]-methionine-labeled (UniProt P03372); experiment: summary of the GST pull-down results

Row | Binder | binding [1] | binding [2] | binding [3]
1 | B1 | binds | binds | 
2 | B2 |  |  | binds
